Laboratory results as given in paper PMC6042199, “Inhibitory effects against α-glucosidase and α-amylase of the flavonoids-rich extract from Scutellaria baicalensis shoots and interpretation of structure–activity relationship of its eight flavonoids by a refined assign-score method” (Chemistry Central Journal, 2018).

System: yeast α-glucosidase from Saccharomyces cerevisiae
Experiment: α-glucosidase inhibitory effect (pNPG, AUC of absorbance at 405 nm)
Format: biochemical
Conditions: Contribution = [Ei/E0] × C × 100
Method: All solvents (analytical grade) were bought from Beijing Chemical Factory, and purified water was from a mili-Q system (Millipore, Billerica, MA).
α-Glucosidase inhibitory effect was assayed as reported by Zhang et al.. […] Then, 30 μL pNPG solution (2 mM pNPG in 0.1 mM phosphate buffer) was added quickly to initiate the enzyme reaction. Absorbance was monitored at 405 nm every 15 min for 2 h using a microplate reader (Tecan infinite 200, Swiss).

SMILES	Contribution to the overall enzyme inhibitory effect of the extract, α-glucosidase
O=c1cc(-c2ccccc2)oc2cc(O)c(O)c(O)c12 [Baicalein, baicalein]	23.29 ± 1.03%
O=C(O)[C@H]1O[C@@H](Oc2cc3oc(-c4ccc(O)cc4)cc(=O)c3c(O)c2O)[C@H](O)[C@@H](O)[C@@H]1O [Scutellarin, scutellarin]	14.74 ± 0.27%
